The list does not hold the whole screen: it gathers some chemical classes. Other doses and runs of a compound may be missing. T/C is the treated group as % of the vehicle group. Some doses have a count of surviving animals in place of a T/C: the source holds a T/C of zero for them, seemingly a mark for toxic or unscored doses. Some survivor counts are full or nearly so, which does not show that the dose was tolerated: the source hardly ever lists a survival T/C far under the control, and the zero likely stands for such cases as well. Counts of survivors are from the toxicity check (mostly the fifth day) where no day follows; animals may have died later. Schedules are NCI's codes, taken here to give the interval after Q, in days (D) or hours (H), and the number of doses after X. Some complexes appear as separate parts, the way the source draws them; their charges need not add up. For survival time, this PubChem deposit counts one and a half times the control or more as active, and values a quarter to a half above the control carry no call in these data; other NCI protocols may use other cut-offs. Some T/C values are followed by the survivors on the day toxicity was checked, most often the fifth; where neither a count nor a note follows, no animal had died by that day. Some doses were run more than once; their values stand side by side, smallest first.

In the experiment the test system is P388 leukemia ip, CD2F1 mice, survival T/C. Briefly: NCI In Vivo Anticancer Drug Screen. Data for tumor model P388 Leukemia (intraperitoneal) in CD2F1 (CDF1) mice. The conditions noted are these: T/C endpoint: median survival time, higher T/C = longer survival.
[1] abbreviates: dose: 50.0 mg/kg/injection, schedule: Q04DX003 (ip), vehicle: Klucel (hydroxypropylcellulose) (HPC).
[2] abbreviates: dose: 100.0 mg/kg/injection, schedule: Q04DX003 (ip), vehicle: Klucel (hydroxypropylcellulose) (HPC).
[3] abbreviates: dose: 50.0 mg/kg/injection, schedule: Q01DX009 (ip), vehicle: saline.
[4] abbreviates: dose: 100.0 mg/kg/injection, schedule: Q01DX009 (ip), vehicle: saline.
Where [5] appears, read: dose: 200.0 mg/kg/injection, schedule: Q01DX009 (ip), vehicle: saline.
Where [6] appears, read: dose: 6.25 mg/kg/injection, schedule: Q01DX005 (ip), vehicle: saline.
The mark [7] stands for this setting: dose: 12.5 mg/kg/injection, schedule: Q01DX005 (ip), vehicle: saline.
The mark [8] stands for this setting: dose: 400.0 mg/kg/injection, schedule: Q01DX009 (ip), vehicle: saline with Tween-80.
Setting [9] is: dose: 12.5 mg/kg/injection, schedule: Q01DX009 (ip), vehicle: saline.
Setting [10] is: dose: 25.0 mg/kg/injection, schedule: Q01DX009 (ip), vehicle: saline.

Regarding `O=C1/C(=C/N(CCCl)CCCl)COc2ccccc21`, the T/C by setting is: (dose: 3.13 mg/kg/injection, schedule: Q01DX005 (ip), vehicle: Klucel (hydroxypropylcellulose) (HPC)) 100 % of control; (dose: 6.25 mg/kg/injection, schedule: Q01DX005 (ip), vehicle: Klucel (hydroxypropylcellulose) (HPC)) 101 % of control; (dose: 12.5 mg/kg/injection, schedule: Q01DX005 (ip), vehicle: Klucel (hydroxypropylcellulose) (HPC)) 101 % of control; (dose: 25.0 mg/kg/injection, schedule: Q01DX005 (ip), vehicle: Klucel (hydroxypropylcellulose) (HPC)) 100 % of control. Further, the survivor count runs as follows: (dose: 25.0 mg/kg/injection, schedule: Q04DX003 (ip), vehicle: Klucel (hydroxypropylcellulose) (HPC)) 5 of 6; under setting [1], 1 of 1; under setting [2], 0 of 6.
Take `O=C1/C(=C\N(CCCl)CCCl)C2CCC1C2` (centres undefined): the T/C reads like this: under setting [2], 103 and 116 % of control; (dose: 200.0 mg/kg/injection, schedule: Q04DX003 (ip), vehicle: Klucel (hydroxypropylcellulose) (HPC)) 100 and 129 % of control [5 of 6 alive]; (dose: 400.0 mg/kg/injection, schedule: Q04DX003 (ip), vehicle: Klucel (hydroxypropylcellulose) (HPC)) 108 and 153 % of control [5 of 6 alive].
Regarding `CC(Cl)CSC(=O)SC(Cl)C(Cl)Cl` (centres undefined), the T/C was 97 % of control [5 of 6 alive] under setting [3], 98 % of control under setting [4] and 97 % of control [5 of 6 alive] under setting [5].
Take `OC(SCCSC(O)C(Cl)(Cl)Cl)C(Cl)(Cl)Cl` (centres undefined): the T/C runs as follows: (dose: 60.0 mg/kg/injection, schedule: Q01DX005 (ip), vehicle: saline with Tween-80) 119 % of control; (dose: 120.0 mg/kg/injection, schedule: Q01DX005 (ip), vehicle: saline with Tween-80) 126 % of control; (dose: 240.0 mg/kg/injection, schedule: Q01DX005 (ip), vehicle: saline with Tween-80) 119 % of control.
For `CC(C)OP(C)(O)=S.CC(N)c1ccccc1` (centres undefined), the T/C is 98 % of control (dose: 3.12 mg/kg/injection, schedule: Q01DX005 (ip), vehicle: saline); 95 % of control under setting [6]; 100 % of control under setting [7]. For the same compound, the survivor count runs as follows: (dose: 50.0 mg/kg/injection, schedule: Q01DX005 (ip), vehicle: saline) 0 of 6; (dose: 100.0 mg/kg/injection, schedule: Q01DX005 (ip), vehicle: saline) 0 of 6; (dose: 200.0 mg/kg/injection, schedule: Q01DX005 (ip), vehicle: saline) 0 of 6.
Take `C1CCC(NC2CCCCC2)CC1.CC(C)(Oc1ccc(N(CCCl)CCCl)cc1)C(=O)O`: the T/C reads like this: (dose: 33.0 mg/kg/injection, schedule: Q04DX003 (ip), vehicle: Klucel (hydroxypropylcellulose) (HPC)) 122 % of control; under setting [1], 186 % of control; (dose: 75.0 mg/kg/injection, schedule: Q04DX003 (ip), vehicle: Klucel (hydroxypropylcellulose) (HPC)) 195 % of control [5 of 6 alive].
As for `CCOP(=O)(NC(=S)NNc1ccccc1)OCC`, the T/C runs as follows: (dose: 25.0 mg/kg/injection, schedule: Q01DX009 (ip), vehicle: saline with Tween-80) 107 % of control; (dose: 50.0 mg/kg/injection, schedule: Q01DX009 (ip), vehicle: saline with Tween-80) 99, 104, 113 % of control; (dose: 100.0 mg/kg/injection, schedule: Q01DX009 (ip), vehicle: saline with Tween-80) 100, 107, 110 % of control; (dose: 200.0 mg/kg/injection, schedule: Q01DX009 (ip), vehicle: saline with Tween-80) 100, 107, 120 % of control; under setting [8], 111 % of control. Moreover, under setting [8], the survivor count is listed as 5 of 6.
Consider `CC(C)(C)OP(OC(C)(C)C)OC(C)(C)C`, for which the T/C runs as follows: (dose: 50.0 mg/kg/injection, schedule: Q01DX009 (ip), vehicle: other) 104 % of control; (dose: 100.0 mg/kg/injection, schedule: Q01DX009 (ip), vehicle: other) 101 % of control; (dose: 200.0 mg/kg/injection, schedule: Q01DX009 (ip), vehicle: other) 90 % of control.
Turning to `CCO[PH+]([O-])OCC.CCO[PH+]([O-])OCC.CCO[PH+]([O-])OCC.[Co+3].[Na+].c1cc[cH-]c1`, the T/C is, setting by setting: under setting [9], 100 % of control; under setting [10], 86 % of control; under setting [3], 89 and 92 % of control; under setting [4], 107 % of control [5 of 6 alive]. The survivor count under setting [5] is on record as 0 of 6.
For the compound `ClCC[N+]1(CCCl)CCCO1`, the T/C is 159 % of control (dose: 6.25 mg/kg/injection, schedule: Q01DX009 (ip), vehicle: saline); 154 % of control (dose: 11.0 mg/kg/injection, schedule: Q04DX003 (ip), vehicle: saline); 100 % of control under setting [9]; 168 % of control (dose: 16.5 mg/kg/injection, schedule: Q04DX003 (ip), vehicle: saline); 90 % of control under setting [10]; 190 % of control (dose: 25.0 mg/kg/injection, schedule: Q04DX003 (ip), vehicle: saline). In addition, where the note is “dose: 37.5 mg/kg/injection, schedule: Q04DX003 (ip), vehicle: saline”, the T/C is 86 % of control.
Regarding `N/C=N/P(=O)(OCc1ccccc1)OCc1ccccc1`, the T/C by setting is: (dose: 50.0 mg/kg/injection, schedule: Q01DX005 (ip), vehicle: Klucel (hydroxypropylcellulose) (HPC)) 95 % of control; (dose: 100.0 mg/kg/injection, schedule: Q01DX005 (ip), vehicle: Klucel (hydroxypropylcellulose) (HPC)) 101 % of control; (dose: 200.0 mg/kg/injection, schedule: Q01DX005 (ip), vehicle: Klucel (hydroxypropylcellulose) (HPC)) 100 % of control [5 of 6 alive].
Turning to `BrCc1ccccc1.Brc1cccnc1`, the T/C was 101 % of control under setting [6]; 96 % of control under setting [7]; 99 % of control (dose: 25.0 mg/kg/injection, schedule: Q01DX005 (ip), vehicle: saline). Also, the survivor count is reported as 1 of 6 (dose: 50.0 mg/kg/injection, schedule: Q01DX005 (ip), vehicle: saline with Tween-80); 0 of 6 (dose: 100.0 mg/kg/injection, schedule: Q01DX005 (ip), vehicle: saline with Tween-80); 0 of 6 (dose: 200.0 mg/kg/injection, schedule: Q01DX005 (ip), vehicle: saline with Tween-80).
On to `OCCN(CCO)CCO.OCCN(CCO)CCO.[Ni+2].[O-][Cl+3]([O-])([O-])O`, for which the T/C under setting [9] was 102 % of control, the T/C under setting [10] is 102 % of control and the T/C under setting [3] is 93 % of control. Besides, the survivor count runs as follows: under setting [3], 6 of 6; under setting [4], 0 of 6; under setting [5], 0 of 6.
As to `CCc1nc([N+](=O)[O-])cn1P(=O)(Oc1ccccc1)OC1CC(C)(C)N(O)C(C)(C)C1` (centres undefined), the T/C (dose: 13.0 mg/kg/injection, schedule: Q01DX009 (ip), vehicle: saline + alcohol) is 114 % of control; the T/C (dose: 25.0 mg/kg/injection, schedule: Q01DX009 (ip), vehicle: saline + alcohol) was 102 % of control; the T/C (dose: 50.0 mg/kg/injection, schedule: Q01DX009 (ip), vehicle: saline + alcohol) was 118 % of control.
